Earlier results, collected in US20040138296A1, “Amyloid immunization and Cox-2 inhibitors for the treatment of alzheimer's disease” (Pharmacia Corporation, priority 2002, published 2004).

Tested on: AD patients

COc1cc2c(cc1OC)C(=O)C(CC1CCN(Cc3ccccc3)CC1)C2 (stereo not shown) [Donepezil]
hepatotoxicity: almost no hepatotoxicity
